Results reported in publication PMC8967839.
No constants are given. Whether binding was seen depends on the method and setting. Binding seen in cells or lysates may run through a third protein. A yes stands for co-enrichment or nearness to the bait. Other partners may have been found.

B1: RecA (protein, UniProt P58552 1-357)
chain: MAINTDTSGKQKALTMVLNQIERSFGKGAIMRLGDATRMRVETISTGALTLDLALGGGLPKGRVIEIYGPESSGKTTVALHAIAEVQKEGGIAAFVDAEHALDPTYASALGVDIQNLLVSQPDTGESALEIVDQLVRSAAVDIVVIDSVAALVPRAEIEGDMGDAHVGLQARLMSQALRKITGNIGKSGCTVIFINQLRQKIGVTYGSPETTTGGNALKFYASVRLDIRRIQTLKKGTDEFGNRVKVKVAKNKVAPPFRIAEFDIIFGKGVSTLGCLVDLAEETGILIRKGAWYSYNGDNISQGRDNAIKYLEEKPEFSEQIKQQVREKLDKGAVVSANSVAKNNEDDEDEDVEEEE
B2: S21 (protein, UniProt P0A4B7 1-62)
chain: MTQIVVGENEHIESALRRFKREVSKAGIFQDMRKHRHFETPIEKSKRKKLALHKQSKRRFRT
B3: RpoA (protein, UniProt Q8YPK3 1-315)
chain: MAQFQIECVESNTEESRNHYSKFILEPLERGQGTTVGNALRRVLLSNLEGTAVTAVRIAGVSHEFATVPGVREDVLEIIMRMKEVILKSYSSQAQIGRLLVNGPTTITASHFDLPSEVEVIDPTQYVATIAEGGKLEMEFRIERGKGYRTVERGREEATSLDFLQIDSIFMPVRKVNYSVEEVRADGSIPKDRLLLEVWTNGSISPQEALSSAAGILVDLFNPLKDISLEPTDTNSDIPDDPTAQIPIEELQLSVRAYNCLKRAQVNSVADLLDYTQEDLLEIKNFGQKSAEEVVEALQRRLGITLPQERSSKHN
B4: L15 (protein, UniProt Q8YPJ6 1-148)
chain: MRLNDVKPQKGSKKRRRRVGRGISAGQGASAGLGMRGQKSRSGSGTRPGFEGGQQPLYRRIPKLKGFPVVNRKIYTTINVEKLADLPANTEVTLESLRAAGILTAAKGPLKILGNGDLGVALNVKAAAFTGQARSKIEAAGGSCEVLG
B5: RpoC2 (protein, UniProt P22705 1-1355)
chain: MTNEKMIFRNRVVDKGQLRNLISWAFTHYGTARTAVMADKLKDLGFRYATRAGVSISVDDLMVPPSKRSLLEAAEEEIRATEVRYQRGEITEVERFQKVIDTWNGTSEALKDEVVTHFKQTNPLNSVYMMAFSGARGNISQVRQLVGMRGLMADPQGEIIDLPIKTNFREGLTVTEYIISSYGARKGLVDTALRTADSGYLTRRLVDVSQDVIIREIDCGTTRGIPVRPMTEGSKTLIKLSTRLLGRVVGEDVIHPKTKEVIAPRNTPISDDLAKEIEKAGVAEVVVRSPLTCEAARSVCQHCYGWSLAHAKMVDLGEAVGIIAAQSIGEPGTQLTMRTFHTGGVFTGEVAQQVRSKMDGTIKLPRKLRTRTHRTRHGEDALFVESNGIMILEPRKEGSETPAPQEIHVTQGSTIYIVDGQQVKKGQLLAEVALGGRTTRTNTEKAVKDVASDLAGEVKFAEVVPEQKTDRQGNTTTTAARGGLIWILSGEVYNLPPGAELVVKNGDRVETNGVLAETKLTTIHGGVVRLPEATPGKSTREIEIITASVVLDQATVTVQSSQGRNNYLITTGNNQVFNLRATPGTKVQNGQVVAELIDDRYRTTTGGFLKFAGVEVQKKGKAKLGYEVVQGGTLLWIPEETHEVNKDISLLLVEDGQYVEAGTEVVKDIFCQNSGVVEVTQKNDILREVVVKPGELLMVDDPEAVIGRDNTLLQPGEELLGQVATELRYIQYVESPEGPALLSRPVVEFAVPSNPDVPSTTSVSQQTGRSIQMRAVQRLPYKDSERVKSVEGVELLRTQLVLEIEQEGEQEHNASPLAADIELIPDLEDADVQRLQLVILESLVLRRDIAADATQGSTQTSLEVKDGDTIVPGSVVARTQILSKEGGIVRGVQKGSEAVRRCLVLRHSDMATLNISAKPKVKAGDLIVAGTELAPGIFAEESGQIVGVKNAGESTTTQDAALSTQNYAVTIRAGRPYRVSPGAVLQIEDGDLVQRGDNLVLLVFERAKTGDIIQGLPRIEELLEARKPKEACILAKRGGEVKVVYGDGDEAIAIKVIESNGVVTDYPLGPGQNLAMPDGSVVPAGQPLSDGPSNPHEILEVFFSLGSEDGVYACASHALQKVQTFLVNEVQMVYQSQGIDIADKHIEVIVRQMTNKVRIDDGGDTTMLPGELVELRQVEQVNEAMAITGGARAQYTPVLLGITKASLNTDSFISAASFQETTRVLTEAAIEGKSDWLRGLKENVIIGRLIPAGTGYNTYDEPGMLEDYSTLETTSVLDETDDPLDMVLDDRTARAYNLDSPGLAETGFNNRRSILDDDELIADEIHDLVEAEVEVDDEVDDDYEDDDEDDDDYED
B6: L1 (protein, UniProt Q8YLJ7 1-238)
chain: MTKKVSRRLRELQAKVEDREYGPLDALGLLKETATAKFGEAAEAHIRLGIDPKYTDQQLRTTVALPKGTGQIVRVAVIARGEKVTEASNAGADVVGSEELIDEIQKGRMDFDKLIATPDVMPQVAKLGKMLGPRGLMPSPKGGTVTFDVASAIAEFKAGKLEFRADRTGIVHVMFGKASFSPEDLLVNLKALQETIDRNRPSGAKGRYWRTFYVSATMGPSIRVDINALRDYKLTEAA
B7: CbbS (protein, UniProt P06514 1-109)
chain: MQTLPKERRYETLSYLPPLTDVQIEKQVQYILSQGYIPAVEFNEVSEPTELYWTLWKLPLFGAKTSREVLAEVQSCRSQYPGHYIRVVGFDNIKQCQILSFIVHKPSRY
B8: S10 (protein, UniProt Q8YP64 1-105)
chain: MATLQQQKIRIRLQAFDRRLLDTSCEKIVDTANRTNATAIGPIPLPTKRKIYCVLRSPHVDKDSREHFETRTHRRIIDIYQPSSKTIDALMKLDLPSGVDIEVKL
B9: Gap1 (protein, UniProt P80506 1-343)
chain: MAKLKVGINGFGRIGRLVLRAGINNPNIEFVGINDLVPPDNLAYLLKYDSTHGRLRSQVETKDDGIVIDGHFIPCVSVRNPAELPWGKLGADYVVESTGLFTDSEGASKHLQAGARRVIISAPTKDPDRVRTLLVGVNHDLFDPSKDLIVSNASCTTNCLAPIAKVINDNFGLTEGLMTTVHAMTATQPTVDGPSKKDWRGGRGAAQNIIPSSTGAAKAVALVLPELKGKLTGMAFRVPTPDVSVVDLTFKTAKATSYKEICAAMKQASEGSLAGILGYTDEEVVSTDFQGDTHSSIFDAGAGIELNSNFFKVVAWYDNEWGYSNRVVDLMLSMVQKEQLAAV
B10: Ssb1 (protein, UniProt P0A4K0 1-119)
chain: MSINIVTLVGRVGTDPDIKYFESGSVKCRLTLAVNRRSKNDKPDWFTLELWDKTAEVAGNYVRKGSLIGVKGSLKFDSWSDRQTGVNRSTPVIRVDQLELLGSKQDRDGGSSDFAPENF
B11: S8 (protein, UniProt Q8YPJ2 1-133)
chain: MAANDTIADMLTRIRNANMARHQTTLVPATKMTRSIAKVLQEEGFIAEISEEGDEVKRNLVIALKYKGKNRQPLITALKRVSKPGLRVYSNRKELPRVLGGIGIAIISTSSGIMTDREARRQNVGGEVLCYVW
B12: L22 (protein, UniProt Q8YPI4 1-119)
chain: MATDTTEVKAIARFIRMSPYKVRRVLDQIRGLSYREALIILEFMPYRATEPVLTLLRSAAANAEHNAGLDRAELVITQAYADQGPVLKRFQPRAQGRAYQIRKPTCHITLAVAANAGAK
B13: RpoO (protein, UniProt Q8YNB9 1-78)
chain: MLKRSKFETTQSQIMHRAEDLISAASNRYRITVQVANRAKRRRYEEFESAEDAMMKPVLRAIIEMSDELTQPEIIGEI
B14: S5 (protein, UniProt Q8YPJ5 1-174)
chain: MATGRRKANRTKKEETNWQERVIQIRRVSKVVKGGKKLSFRAIVVVGNERGQVGVGVGKASDVIGAVKKGVADGKKHLIDIPITKSNSIPHPIDGVGGGAKVMMRPAAPGTGVIAGGAVRTVLELAGVRNVLAKQLGSNNPLNNARAAVNALSTLRTLAEVAEDRGIAIEKLYI
B15: S7 (protein, UniProt Q8YP61 1-156)
chain: MSRRGVIQRRPVPPDSVYNSRLVSMIIRRIMRHGKKSLAARIVYDALKTIEERTGNNALEVFERAVRNATPLVEVKARRVGGATYQVPMEVRTERGTTLALRWLVQFSRSRPGRTMASRLANELLDAANESGNAIRKREETHRMAEANKAFAHYRY
B16: ArgG (protein, UniProt Q8YMX6 1-400)
chain: MGRAKKVVLAYSGGVDTSVCIPYLKQEWGVEEVITLAADLGQGDELEPIREKALKSGASESLVADVKESFIKDYAFPAIQANALYENRYPLGTALARPLIAKILVEAAAKYGADAIAHGCTGKGNDQVRFDVSCTALNPNLKILAPAREWGMSREATIAYGEKFGIPSPVKKSSPYSIDKNLLGRSIEAGALEDPKFEPPEEIYEMTKAIADTPNEPEYIEIGFTQGLPTTLNGIPKDPVALIQELNQVVGSHGVGRIDMIENRLVGIKSREIYESPAMLVLIPAHRDLESLTLTADVSHYKRGIEETYSQIVYNGLWYSPLKAALDAFIQKTQERVSGTVRVKLFKGNATIVGRWSDSSLYTPDLATYGAEDQFDHKAAEGFIYVWGLPTRIWAQQDRG
B17: Asr0105 (protein, UniProt Q8Z0I8 1-88)
chain: MEIQLINIGFGNIVSANRVVAIVSPESAPIKRIITDARDKNQLIDATYGRRTRAVIITDSSHVILSAIQPETVANRFVISREHQSVEN
B18: IlvC (protein, UniProt Q8YUM5 1-331)
chain: MARMYYDEDANLDLLAGKTIAIIGYGSQGHAHALNLKDSGLNVIVGLYPGSKSAEKAQAAGLTVKNVADAANIADFIMILLPDEVQKTVYKNEIEPNLQEGNTLAFAHGFNIHFGQVVPPANVDVVMVAPKGPGHLVRRTYEQGQGVPALFAVYQDASGKARDRALSYAKGIGGTRGGVLETTFREETETDLFGEQAVLCGGLSALIKAGFETLVEAGYQPELAYFECLHEVKLIVDLVVEGGLAKMRDSISNTAEYGDYTRGPRIVNEQTKAEMRKVLSEIQSGQFAREFVLENQSGKPGFTAMRRQEAEHPIEEVGKDLRAMFSWLKKV
B19: PurC (protein, UniProt Q8YUR7 1-245)
chain: MSVHSKLYEGKAKILYTTDEPEVLLADFKDDATAFNAQKRGSIIGKGRINCSISSQLFQQLEASGIKTHFIDSPAPNQMRVKAVKIIPLEVVIRNIAAGSLSQQTGIELGTVLKQPLVEFYYKNDQLGDPLLTRDRLLLMELATAEQVEEITHLALQINDFLKNFWQNCGITLVDFKLEFGLDSQQQILLADEISPDTCRLWNTTEADPNRRVMDKDRFRRDLGNVEDAYQEVLQRVLTAVEIKN
B20: L5 (protein, UniProt Q8YPJ1 1-182)
chain: MATTRLKTLYQETIVPKLTQQFQYTNVHQVPKLVKITVNRGLGEAAQNAKSLEASLTEIATITGQKPVVTRAKKAIAGFKIRQGMPVGIMVTLRGERMYAFFDRLISLSLPRIRDFRGISPKSFDGRGNYTLGVREQLIFPEIEYDSIDQIRGLDISIITTAKNDEEGRALLKEFGMPFRDQ

Molecular target: anaCyp40 with C-terminal Strep-tag (Anabaena sp. PCC 7120)
Experiment: affinity purification with mass spectrometry; Strep-tagged anaCyp40 from whole cell lysate of AFS-anacyp40-strep (1% β-DM, 100 mM Tris pH 8.0, 50 mM NaCl) on MagStrep type3 XT beads, 60 min at 4 °C; washes up to 100 mM NaCl and 0.5% Nonidet P-40; eluted with 50 mM D-biotin; wild-type Anabaena sp. as control; lysate not treated with RNAse or DNAse; LC-MS, p < 0.05

Binder	binding
B1	binds
B2	binds
B3	binds
B4	binds
B5	binds
B6	binds
B7	binds
B8	binds
B9	binds
B10	binds
B11	binds
B12	binds
B13	binds
B14	binds
B15	binds
B16	binds
B17	binds
B18	binds
B19	binds
B20	binds
